Here are results for four molecules from paper PMC8492312.

In test [1] the target is T1, lipin 1-BirA* (lipin 1 fused to the BirA* biotin ligase) (UniProt Q91ZP3).
T1 sequence: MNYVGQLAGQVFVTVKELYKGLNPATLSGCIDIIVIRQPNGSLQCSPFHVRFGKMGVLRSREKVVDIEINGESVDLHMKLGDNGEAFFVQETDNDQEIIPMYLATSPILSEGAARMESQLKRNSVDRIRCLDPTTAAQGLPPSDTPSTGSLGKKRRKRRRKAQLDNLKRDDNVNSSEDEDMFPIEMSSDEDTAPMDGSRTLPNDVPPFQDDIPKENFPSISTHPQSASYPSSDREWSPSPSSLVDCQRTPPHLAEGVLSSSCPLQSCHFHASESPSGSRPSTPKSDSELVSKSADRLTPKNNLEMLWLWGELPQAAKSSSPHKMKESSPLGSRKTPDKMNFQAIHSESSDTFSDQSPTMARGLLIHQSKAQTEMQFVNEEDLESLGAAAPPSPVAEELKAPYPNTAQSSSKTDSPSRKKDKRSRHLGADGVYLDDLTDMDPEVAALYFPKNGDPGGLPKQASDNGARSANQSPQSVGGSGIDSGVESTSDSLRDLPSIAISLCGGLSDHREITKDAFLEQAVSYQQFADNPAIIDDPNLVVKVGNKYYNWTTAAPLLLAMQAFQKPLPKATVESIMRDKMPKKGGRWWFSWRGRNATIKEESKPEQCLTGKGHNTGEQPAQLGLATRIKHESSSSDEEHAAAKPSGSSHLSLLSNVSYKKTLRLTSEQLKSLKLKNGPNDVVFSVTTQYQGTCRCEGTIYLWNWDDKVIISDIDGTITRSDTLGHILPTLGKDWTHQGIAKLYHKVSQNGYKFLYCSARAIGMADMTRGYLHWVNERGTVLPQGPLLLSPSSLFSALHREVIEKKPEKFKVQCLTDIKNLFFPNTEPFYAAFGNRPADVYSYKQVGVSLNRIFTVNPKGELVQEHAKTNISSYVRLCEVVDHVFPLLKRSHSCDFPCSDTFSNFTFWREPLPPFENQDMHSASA
Briefly: proximity labelling; lipin 1-BirA* in Hepa1-6 cells with biotin; streptavidin pull-down followed by immunoblot for the partner; negative control for endogenously biotinylated proteins.

Test [2] has as its target T1, lipin 1-BirA* (lipin 1 fused to the BirA* biotin ligase). Briefly: proximity labelling; BioID: lipin 1-BirA* expressed in Hepa1-6 cells, 100 uM biotin for 24 hours, biotinylated proteins captured on streptavidin beads and identified by mass spectrometry; hits with at least 2 unique peptides, peptide-level FDR below 5%, endogenously biotinylated proteins removed.

These are yes or no findings as the source states them, for the method shown. In cells and extracts the contact can be indirect. Here binding means that the protein was enriched with, or labelled near, the bait; the list need not be complete. Where a sequence is shown, tags or fusion partners need not be part of it.

B1: SPF45 (protein, UniProt Q8JZX4 1-405)
chain: MSLYDDLGVETSDSKTEGWSKNFKLLQSQLQVKKAALTQAKSQRTKQSTVLAPVIDLKRGGSSDDRQIADTPPHVAAGLKDPVPSGFSAGEVLIPLADEYDPMFPNDYEKVVKRQREERQRQRELERQKEIEEREKRRKDRHEASGFSRRPDPDSDEDEDYERERRKRSMGGAAIAPPTSLVEKDKELPRDFPYEEDSRPRSQSSKAAIPPPVYEEPDRPRSPTGPSNSFLANMGGTVAHKIMQKYGFREGQGLGKHEQGLSTALSVEKTSKRGGKIIVGDATEKGEAQDASKKSDSNPLTEILKCPTKVVLLRNMVGAGEVDEDLEVETKEECEKYGKVGKCVIFEIPGAPDDEAVRIFLEFERVESAIKAVVDLNGRYFGGRVVKACFYNLDKFRVLDLAEQV
On to B1, for which the binding result in test [1] is recorded as “binds”.

B2: U2AF1 (protein, UniProt Q9D883 1-239)
chain: MAEYLASIFGTEKDKVNCSFYFKIGACRHGDRCSRLHNKPTFSQTIALLNIYRNPQNSSQSADGLRCAVSDVEMQEHYDEFFEEVFTEMEEKYGEVEEMNVCDNLGDHLVGNVYVKFRREEDAEKAVIDLNNRWFNGQPIHAELSPVTDFREACCRQYEMGECTRGGFCNFMHLKPISRELRRELYGRRRKKHRSRSRSRERRSRSRDRGRGGGGGGGGGGGRERDRRRSRDRERSGRF
Take B2: in test [1], the binding entry is listed as “binds”.

B3: lipin 3 (protein, UniProt Q99PI4 1-848)
chain: MNYVGQLAETVFGTVKELYRGLNPATLSGGIDVLVVRQRDGSFRCSPFHVRFGKLGVLRSREKVVDIEINGEPVDLHMKLGDSGEAFFVQELDSDEEDVPPRLCTSPIPWGGLSGFPSDSQIGTASEPEGLVITGRRKRRRRRKPRRREEDAVDSSSEELEAGAESELTLLEKPTPESPSAQEAEEPSSQPKDIHPYSDGECTPQANLSSGDLMSPKSDSELELRSLEPSPLRAESHMQWVWGRLPKVAKAERPEFSLILESMAEAICALPEEPSPSSSPSEAGVDTLSPPVLHPGVRADTFHPAVEAHCEETAVDSPLAAPESKETKTQNSRGAGHPPATKSWSWTTPESHTPSGHPQVSRGKGSLKRNQHLGPSDIYLDDLPSLDSENVALYFPKSEYGMGARRWSEPSNQKLLESPNPEHIAECTLDSVDKIELSLCGGLADNRDISLEKFTQHMVSYEDLTKNPGLLDDPNLVVKINEKHYNWAVAAPMILSLQAFQKNLPESTVDKLEKEKMPRKGGRWWFSWRRRDFPAEEHSSQREKAATRKQQGEKTEVLSSDDDVPDSPVILEVPPLPSSTPGYVPTYKKSLRLSSDQIRCLNLNEGANDVVFSVTTQYQGTCRCKATIYLWNWDDKVVISDIDGTITKSDALGHILPQLGKDWTHQGITSLYHKIHLNGYKFLYCSARAIGMADLTKGYLQWVSEHGCGLPKGPILLSPSSLFSALHREVIEKKPEVFKVACLSDIQQLFLPQRQPFHAAFGNRPNDVFAYRQVGLPESRIFTVNPRGELIQELIKSHKSTYQRLGEVVELLFPPVVRGPSTDLASPEYSNLSYWRKPLPYVDFEALA
B3: the binding entry in test [1] and in test [2] was “binds” each time.

B4: lipin 2 (protein, UniProt Q99PI5 1-893)
chain: MNYVGQLAGQVLVTVKELYKGINQATLSGCIDVVVVRQQDGSYQCSPFHVRFGKLGVLRSKEKVIDIEINGSAVDLHMKLGDNGEAFFVEETEEEYEKLPAYLATSPIPTEDQFFKHIETPLVKSSGNERPAQSSDVSHTLESEAVFTQSSVKKKKRRRKKCKQDNRKEEQAASPVAEDVGDVGVSSDDEKRAQAARGSSNASLKEEDYKEPSLFHSGDNYPLSDGDWSPLETTYPQAVCPKSDSELEVKPSESLLRSEPHMEWTWGGFPESTKVTKRERYDYHPRTATITPSENTHFRVIPSEDSLIREVEKDATVEDTTCTIVKPKPRALCKQLSDAASTELPESPLEAPQISSLLDADPVPSPSAEAPSEPKPAAKDSPTKKKGVHKRSQHQGPDDIYLDDLKALEPEVAALYFPKSDTDPGSRQWPESDTFSGSQSPQSVGSAAADSGTECLSDSAMDLPDVTLSLCGGLSENGEISKEKFMEHIITYHEFAENPGLIDNPNLVIRIYNRYYNWALAAPMILSLQVFQKSLPKATVESWVKDKMPKKSGRWWFWRKKESMIKQLPETKEGKSEVPPANDLPSNAEEPTSARPAENDTSSDEGSQELEESIKVDPITVETLSHCGTASYKKSLRLSSDQIAKLKLHDGPNDVVFSITTQYQGTCRCAGTIYLWNWNDKVIISDIDGTITKSDALGQILPQLGKDWTHQGIARLYHSINENGYKFLYCSARAIGMADMTRGYLHWVNDKGTILPRGPLMLSPSSLFSAFHREVIEKKPEKFKIECLNDIKNLFAPSRQPFYAAFGNRPNDVYAYTQVGVPDCRIFTVNPKGELIQERTKGNKSSYHRLSELVEHVFPLLSKEQNSAFPCPEFSSFCYWRDPIPDLDLDDLA
Take B4: the binding entry in test [1] and in test [2] was “binds” each time.
